Tested on: pAp-ethyl
Assay: 2′-O-adduct formation with [32P]-labeled pAp-ethyl
Details: for final extent of 2′-O-adduct formation for the two compounds: 5 mM reagent, 1M7 compared with NMIA; for dependence of reaction with pAp-ethyl on Mg2+ concentration or ionic strength: control experiments (FIG. 6)
Description: Hydrolysis was followed by adding (1.5 mM NMIA or 2.0 mM 1M7 in 300 μL DMSO) reagent to 1.1× buffer (2.7 mL, 6.7 mM MgCl2, 111 mM NaCl, 111 mM HEPES (pH 8.0)) equilibrated at 37° C. in a cuvette. Pseudo-first-order rates were obtained by monitoring the absorbance of the hydrolysis product (at 360 nm for 2-methylaminobenzoate and 430 nm for 2-methylamino-4-nitrobenzoate). Rates of adduct formation for [^32P]-labeled pAp-ethyl (10,000 cpm/μL) were obtained by adding 10% (v/v) reagent (5 mM final NMIA or 1M7 in DMSO) to 1.1× reaction buffer, quenching the reaction with 1 vol 250 mM dithiothreitol, resolving by gel electrophoresis (30% polyacrylamide; 29:1 acrylamide:bisacrylamide; 0.4 mm×28.5 cm×23 cm; 30 W; 45 minutes), and quantifying by phosphorimaging. Reaction rates were obtained using an equation that accounts for parallel reaction of NMIA or 1M7 by 2′-O-adduct formation (kadduct) and by hydrolysis (khydrolysis): fraction product=1−exp[(kadduct[reagent]/khydrolysis)(e^−(khydrolysis)t−1)]. Synthesis of Bacillus subtilis RNase P RNA
The ability of each compound to react with 3′-phosphoethyl-5′-adenosine monophosphate (pAp-ethyl) was then evaluated. pAp-ethyl contains a 2′-hydroxyl and 3′-phosphodiester monoanion.

Structure (SMILES) | final extent of 2′-O-adduct formation for the two compounds | dependence of reaction with pAp-ethyl on Mg2+ concentration or ionic strength
Cn1c(=O)oc(=O)c2ccccc21 [NMIA, N-methylisatoic anhydride] | identical, within error | strongly dependent on ionic strength
Cn1c(=O)oc(=O)c2ccc([N+](=O)[O-])cc21 [1M7, 1-methyl-7-nitroisatoic anhydride] | identical, within error | independent of Mg^2+ concentration
